The nature of this assay: qHTS Assay for Lipid Storage Modulators in Drosophila S3 Cells.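 As to cell number change: cells counted by Cell Tracker Red CMTPX staining in the red channel.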 As to conditions: BODIPY lipid droplet fluorescence, 18-24 h; for cell number change: measured here: cell count max response, cells fed with added oleic acid. The method in brief:
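Drosophila S3 cells got compounds at several concentrations plus oleic acid (400 uM solution). Laser-scanning cytometry with 488 nm excitation read lipid droplets at 500-530 nm and cells at 575-640 nm. Percent activity was relative to 20 uM Triacsin C.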
A general note: In qHTS, concentration-response curves come from the screen itself.

Setting [1] is: measured here: lipid fluorescence (Fed channel) AC50, cells fed with added oleic acid.
The mark [2] stands for this setting: measured here: cell number channel AC50, cells fed with added oleic acid.

Some of the results follow. Further columns of the screen follow, without active or inactive calls. Most of these compounds were active or inconclusive in the main read-out, so they are no random draw. Potencies come from curve fits of mixed quality, noted in brackets.

A word on the AC50: it is the concentration giving half of the maximal activity seen. A high value points to weaker potency.

For `Cn1cc([N+](=O)[O-])c(C(=O)Nc2cnn(Cc3ccc(F)cc3)c2)n1`, the cell number change was 2.44%. For the same compound, the concentration at half-maximal activity (AC50) under setting [1] was 5.17 µM [rising, single point].
Regarding `Cc1cc(C)c(S(=O)(=O)N2CCCCC2CCNC(=O)C(=O)NCc2ccco2)c(C)c1` (configuration not stated), the cell number change is -38.7%. In addition, under setting [2], the concentration at half-maximal activity (AC50) is 23.1 µM [falling, partial curve, poor fit]. Besides, the concentration at half-maximal activity (AC50) under setting [1] was 23.1 µM [falling, single point].
In the case of `COc1cccc2[nH]c3c(N4CCC(C(N)=O)CC4)ncnc3c12`, the cell number change amounted to 0.999%.
For `O=C(Nc1cccc(Cl)c1N1CCOCC1)c1cccs1`, the cell number change was -11.5%. Further, the half-maximal activity concentration (AC50) under setting [1] is 6.51 µM [falling, single point].
For `CCc1cc(C(=O)NCCN(C)C)cs1`, the cell number change is -16.5%. Also, the AC50 under setting [1] is 0.651 µM [falling, full curve, poor fit].
Take `CCN(CC(=O)Nc1c(F)cccc1F)C(=O)Cc1ccc(OC)c(S(=O)(=O)N2CCOCC2)c1`: the cell number change was 24%.
Take `Cc1c(C(=O)c2ccc([N+](=O)[O-])cc2)c(=O)n(C)c(=O)n1C`: the cell number change is -25.1%. Moreover, under setting [1], the concentration at half-maximal activity (AC50) was 8.2 µM [falling, partial curve].
As to `NC(=O)c1ccccc1NC(=O)/C=C/c1c(Cl)cccc1Cl`, the cell number change is -8.19%.
`CCn1c(N2CCN(C(=O)C34CC5CC(CC(C5)C3)C4)CC2)nc2ccccc21`: the cell number change is -54.9%. Moreover, the AC50 under setting [2] was 3.26 µM [falling, full curve]. Also, the half-maximal activity concentration (AC50) under setting [1] is 29.1 µM [falling, single point].
With `CCOC(=O)c1[nH]c2c(c1-c1ccc(OC)cc1)C(=O)CC(c1ccc(OC)c(OC)c1)C2` (configuration not stated), the cell number change came out at 15.9%. In addition, the half-maximal activity concentration (AC50) under setting [1] was 1.3 µM [rising, full curve].
Take `CCNC(=O)CC1C(=O)N(c2ccc(C)cc2)C(=O)N1CCc1sccc1C` (configuration not stated): the cell number change was -25.8%. Further, the AC50 under setting [1] is 0.517 µM [falling, full curve].
In the case of `Oc1ccc[n+](CC(O)c2ccccc2)c1` (configuration not stated), the cell number change was 1.09%. Moreover, under setting [1], the concentration at half-maximal activity (AC50) is 6.51 µM [falling, single point].
On to `COC(=O)C1=C(C)NC(C)=C(C(=O)OCC2CCCO2)C1c1cccc(Cl)c1` (configuration not stated), for which the cell number change was -8.8%. Moreover, the AC50 under setting [1] was 6.51 µM [rising, single point].
On to `Cc1ccc(C)c(OCC(=O)NNC(=O)c2ccc(NC(=O)C3CC3)cc2)c1`, for which the cell number change was 21.2%.
`COC(=O)c1ccc(NC(=O)Nc2ccccc2F)cc1`: the cell number change is 5.41%. Further, the AC50 under setting [2] was 2.06 µM [falling, partial curve, poor fit].
For the compound `Cc1ccc(-c2nc3ccccn3c2Nc2ccccc2)o1`, the AC50 under setting [1] is 5.17 µM [rising, single point].
On to `Cn1c(/C=N/Nc2nc3ccccc3[nH]2)nc2ccccc21`, for which the cell number change was -106%. Besides, the AC50 under setting [2] was 20.6 µM [falling, single point]. In addition, the concentration at half-maximal activity (AC50) under setting [1] is 29.1 µM [falling, single point].

Source of the values: PubChem BioAssay AID2685 (National Center for Advancing Translational Sciences (NCATS), 2010).
